PubChem BioAssay AID504774 | Drosophila RNAi Screening Center | 2011
Purpose: 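Genes required for cells to withstand methyl methanesulphonate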 (primary screen). System: Drosophila Kc167 cells. Knock-down reagent: long dsRNA against Drosophila genes, about 0.25 µg dsRNA per well. Time to read-out: about 6 days: 3 days knock-down, then 3 days with or without MMS. Treatment: methyl methanesulphonate 0.004% (w/v) for 3 days after knock-down. Read-out: 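ATP-dependent luminescence as a measure of live cells in MMS-exposed wells, quantile normalised within each plate, with replicate values also given as a mean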. Scale: mean viability with MMS: higher = more surviving cells after MMS.
The deposit covers about 23,000 reagents; below is a random part of those that have a named target and a result. 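Values are quantile-normalised luminescence on an arbitrary scale; higher means more cells surviving MMS.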 The numbers tell different reagents against one gene apart. A plus sign joins genes that one reagent is predicted to hit. Not all columns of the deposit are shown.

{"target gene":"ckn (GeneID 36673)","reagent":1,"mean viability with MMS":3.17e6}
{"target gene":"Shawn + Tyler","reagent":1,"mean viability with MMS":3.59e6}
{"target gene":"Shawn + Tyler","reagent":2,"mean viability with MMS":3.41e6}
{"target gene":"CG8543 (GeneID 38837)","reagent":1,"mean viability with MMS":3.73e6}
{"target gene":"CG8543 (GeneID 38837)","reagent":2,"mean viability with MMS":3.51e6}
{"target gene":"CG15745 (retired record) (GeneID 32283)","reagent":1,"mean viability with MMS":3.56e6}
{"target gene":"Ugt317A1 (GeneID 37590)","reagent":1,"mean viability with MMS":3.60e6}
{"target gene":"Tep2 (GeneID 34044)","reagent":1,"mean viability with MMS":3.38e6}
{"target gene":"Tep2 (GeneID 34044)","reagent":2,"mean viability with MMS":3.31e6}
{"target gene":"CG9356 (GeneID 41122)","reagent":1,"mean viability with MMS":3.60e6}
{"target gene":"CG10597 (GeneID 32714)","reagent":1,"mean viability with MMS":3.26e6}
{"target gene":"CG13606 (GeneID 42873)","reagent":1,"mean viability with MMS":3.65e6}
{"target gene":"Obp57a (GeneID 246670)","reagent":1,"mean viability with MMS":3.79e6}
{"target gene":"CG14282 (GeneID 42301)","reagent":1,"mean viability with MMS":3.49e6}
{"target gene":"rumpel (GeneID 31674)","reagent":1,"mean viability with MMS":3.52e6}
{"target gene":"CG11474 (GeneID 37514)","reagent":1,"mean viability with MMS":3.69e6}
{"target gene":"CG8675 (GeneID 32716)","reagent":1,"mean viability with MMS":3.85e6}
{"target gene":"CG11664 (GeneID 31033)","reagent":1,"mean viability with MMS":3.62e6}
{"target gene":"Reck (GeneID 39629)","reagent":1,"mean viability with MMS":3.74e6}
{"target gene":"Reck (GeneID 39629)","reagent":2,"mean viability with MMS":3.56e6}
{"target gene":"Eip63F-1 (GeneID 47878)","reagent":1,"mean viability with MMS":3.71e6}
{"target gene":"Eip63F-1 (GeneID 47878)","reagent":2,"mean viability with MMS":3.59e6}
{"target gene":"cact (GeneID 34969)","reagent":1,"mean viability with MMS":3.63e6}
{"target gene":"Gr43a (GeneID 35655)","reagent":1,"mean viability with MMS":3.55e6}

3 consecutive entries from above:
{"target gene":"CG8675 (GeneID 32716)","reagent":1,"mean viability with MMS":3.85e6}
{"target gene":"CG11664 (GeneID 31033)","reagent":1,"mean viability with MMS":3.62e6}
{"target gene":"Reck (GeneID 39629)","reagent":1,"mean viability with MMS":3.74e6}
